Results taken from the supplement of paper PMC12823440, “Inhibitors supercharge kinase turnover through native proteolytic circuits” (Nature, 2025).
The list shows a part of the results. Hit calls seldom repeat between salt and free forms of one compound.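 Kinases, fused to nanoluciferase, were expressed in K562 cells; luminescence was measured every 4 h from 2 to 18 h as percent of control (DMSO = 100%, positive control = 0%). A time point is decreased if signal falls significantly (2 sigma). Hits were called by the authors by a rule that is not shown; the count of time points alone does not decide it.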

Amino acid sequences for entries named in this document (tags omitted). A change or cut given only in a name is not applied to a line headed by its entry.
UniProt Q9Y616: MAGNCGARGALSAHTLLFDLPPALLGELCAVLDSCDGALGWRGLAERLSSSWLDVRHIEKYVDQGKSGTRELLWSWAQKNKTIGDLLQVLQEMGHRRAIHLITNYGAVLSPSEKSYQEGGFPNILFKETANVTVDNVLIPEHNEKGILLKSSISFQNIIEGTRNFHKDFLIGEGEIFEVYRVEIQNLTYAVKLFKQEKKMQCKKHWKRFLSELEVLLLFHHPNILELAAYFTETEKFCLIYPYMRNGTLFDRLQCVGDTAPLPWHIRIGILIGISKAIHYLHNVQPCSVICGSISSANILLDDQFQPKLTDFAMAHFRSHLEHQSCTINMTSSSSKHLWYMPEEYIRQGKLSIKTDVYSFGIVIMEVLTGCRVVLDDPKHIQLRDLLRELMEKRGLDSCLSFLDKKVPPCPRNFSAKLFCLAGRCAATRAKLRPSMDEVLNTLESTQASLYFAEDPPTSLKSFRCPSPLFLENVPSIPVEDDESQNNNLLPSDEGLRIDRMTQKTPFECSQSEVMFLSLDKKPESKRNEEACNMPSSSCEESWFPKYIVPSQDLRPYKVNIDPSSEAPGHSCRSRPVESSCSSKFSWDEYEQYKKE
UniProt P06239: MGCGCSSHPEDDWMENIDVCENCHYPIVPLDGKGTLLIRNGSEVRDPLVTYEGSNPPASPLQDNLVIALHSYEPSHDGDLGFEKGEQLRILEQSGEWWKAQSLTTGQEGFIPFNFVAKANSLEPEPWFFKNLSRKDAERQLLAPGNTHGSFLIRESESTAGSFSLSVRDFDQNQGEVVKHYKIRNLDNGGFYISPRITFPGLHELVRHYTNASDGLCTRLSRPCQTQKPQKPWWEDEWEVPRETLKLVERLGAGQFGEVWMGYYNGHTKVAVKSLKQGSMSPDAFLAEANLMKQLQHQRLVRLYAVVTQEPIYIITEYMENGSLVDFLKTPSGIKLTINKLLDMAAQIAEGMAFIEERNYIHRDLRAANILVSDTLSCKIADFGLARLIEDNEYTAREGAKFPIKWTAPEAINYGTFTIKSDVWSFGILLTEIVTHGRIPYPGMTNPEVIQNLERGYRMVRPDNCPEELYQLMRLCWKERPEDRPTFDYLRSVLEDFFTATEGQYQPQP
UniProt P53667: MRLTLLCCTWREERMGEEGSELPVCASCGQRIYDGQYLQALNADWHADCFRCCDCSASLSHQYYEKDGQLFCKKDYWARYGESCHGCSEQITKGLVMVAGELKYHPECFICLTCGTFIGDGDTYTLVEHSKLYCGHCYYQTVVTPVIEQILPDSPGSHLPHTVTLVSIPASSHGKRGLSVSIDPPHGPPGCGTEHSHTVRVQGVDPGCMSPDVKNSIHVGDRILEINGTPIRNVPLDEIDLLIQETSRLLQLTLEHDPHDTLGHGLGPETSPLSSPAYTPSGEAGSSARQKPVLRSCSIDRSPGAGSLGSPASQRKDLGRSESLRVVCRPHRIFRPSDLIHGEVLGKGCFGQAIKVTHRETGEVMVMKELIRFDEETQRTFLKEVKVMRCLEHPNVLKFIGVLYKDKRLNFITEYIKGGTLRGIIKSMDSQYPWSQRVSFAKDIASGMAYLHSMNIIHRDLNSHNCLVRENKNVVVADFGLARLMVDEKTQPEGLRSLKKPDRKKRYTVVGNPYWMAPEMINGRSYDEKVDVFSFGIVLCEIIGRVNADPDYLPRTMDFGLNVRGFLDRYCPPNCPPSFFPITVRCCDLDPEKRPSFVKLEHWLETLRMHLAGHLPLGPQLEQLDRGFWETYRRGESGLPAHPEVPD
UniProt P53671: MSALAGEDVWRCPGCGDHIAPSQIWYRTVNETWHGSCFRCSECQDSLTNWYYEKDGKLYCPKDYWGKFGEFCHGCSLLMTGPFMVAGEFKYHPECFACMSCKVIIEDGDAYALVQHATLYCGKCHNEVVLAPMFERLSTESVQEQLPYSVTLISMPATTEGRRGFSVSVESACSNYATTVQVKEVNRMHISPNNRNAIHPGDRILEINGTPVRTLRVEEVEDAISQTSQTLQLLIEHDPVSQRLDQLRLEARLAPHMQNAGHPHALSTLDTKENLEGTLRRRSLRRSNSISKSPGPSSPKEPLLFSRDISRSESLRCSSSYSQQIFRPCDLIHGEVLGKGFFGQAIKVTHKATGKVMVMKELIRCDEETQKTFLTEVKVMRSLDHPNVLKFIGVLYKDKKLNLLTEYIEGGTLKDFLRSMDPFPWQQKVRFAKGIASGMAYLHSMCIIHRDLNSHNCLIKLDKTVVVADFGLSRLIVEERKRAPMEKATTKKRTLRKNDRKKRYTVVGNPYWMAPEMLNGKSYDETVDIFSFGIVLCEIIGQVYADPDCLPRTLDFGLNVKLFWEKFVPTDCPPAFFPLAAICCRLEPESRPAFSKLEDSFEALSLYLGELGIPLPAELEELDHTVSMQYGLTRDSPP
UniProt P07948: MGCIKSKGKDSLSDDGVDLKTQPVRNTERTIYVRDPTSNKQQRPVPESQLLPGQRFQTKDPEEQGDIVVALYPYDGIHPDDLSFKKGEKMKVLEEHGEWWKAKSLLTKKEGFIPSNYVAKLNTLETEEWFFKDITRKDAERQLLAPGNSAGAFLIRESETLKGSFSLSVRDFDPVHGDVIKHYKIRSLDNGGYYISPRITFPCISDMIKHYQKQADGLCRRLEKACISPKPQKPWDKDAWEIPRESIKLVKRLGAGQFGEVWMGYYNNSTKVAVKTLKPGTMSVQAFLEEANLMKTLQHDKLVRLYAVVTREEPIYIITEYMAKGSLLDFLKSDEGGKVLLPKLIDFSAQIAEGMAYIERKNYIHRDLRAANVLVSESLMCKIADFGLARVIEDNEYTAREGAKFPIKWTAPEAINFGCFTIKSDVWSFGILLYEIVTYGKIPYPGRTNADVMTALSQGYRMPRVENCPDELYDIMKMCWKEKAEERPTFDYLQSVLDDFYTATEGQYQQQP
UniProt Q12851: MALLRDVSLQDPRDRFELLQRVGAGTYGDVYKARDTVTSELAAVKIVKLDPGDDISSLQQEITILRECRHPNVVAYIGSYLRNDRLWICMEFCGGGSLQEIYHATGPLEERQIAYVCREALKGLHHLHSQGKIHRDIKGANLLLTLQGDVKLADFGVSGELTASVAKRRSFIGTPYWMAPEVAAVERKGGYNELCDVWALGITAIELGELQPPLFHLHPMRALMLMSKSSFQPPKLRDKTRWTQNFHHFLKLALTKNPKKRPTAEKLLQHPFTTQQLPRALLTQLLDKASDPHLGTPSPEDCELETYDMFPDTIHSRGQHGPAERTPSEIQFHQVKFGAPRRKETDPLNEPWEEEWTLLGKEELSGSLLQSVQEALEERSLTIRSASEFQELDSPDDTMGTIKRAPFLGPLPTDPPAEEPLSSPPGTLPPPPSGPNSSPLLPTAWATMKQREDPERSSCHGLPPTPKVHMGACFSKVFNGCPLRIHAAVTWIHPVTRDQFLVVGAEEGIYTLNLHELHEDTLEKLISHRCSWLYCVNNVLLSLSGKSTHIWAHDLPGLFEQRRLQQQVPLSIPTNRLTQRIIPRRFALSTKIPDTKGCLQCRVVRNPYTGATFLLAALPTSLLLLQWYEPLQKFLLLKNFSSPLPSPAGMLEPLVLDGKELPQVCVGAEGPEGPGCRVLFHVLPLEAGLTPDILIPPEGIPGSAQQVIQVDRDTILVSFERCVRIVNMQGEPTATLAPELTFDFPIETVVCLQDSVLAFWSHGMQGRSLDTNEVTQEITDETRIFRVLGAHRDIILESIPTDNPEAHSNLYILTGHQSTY
UniProt P31152, whole entry: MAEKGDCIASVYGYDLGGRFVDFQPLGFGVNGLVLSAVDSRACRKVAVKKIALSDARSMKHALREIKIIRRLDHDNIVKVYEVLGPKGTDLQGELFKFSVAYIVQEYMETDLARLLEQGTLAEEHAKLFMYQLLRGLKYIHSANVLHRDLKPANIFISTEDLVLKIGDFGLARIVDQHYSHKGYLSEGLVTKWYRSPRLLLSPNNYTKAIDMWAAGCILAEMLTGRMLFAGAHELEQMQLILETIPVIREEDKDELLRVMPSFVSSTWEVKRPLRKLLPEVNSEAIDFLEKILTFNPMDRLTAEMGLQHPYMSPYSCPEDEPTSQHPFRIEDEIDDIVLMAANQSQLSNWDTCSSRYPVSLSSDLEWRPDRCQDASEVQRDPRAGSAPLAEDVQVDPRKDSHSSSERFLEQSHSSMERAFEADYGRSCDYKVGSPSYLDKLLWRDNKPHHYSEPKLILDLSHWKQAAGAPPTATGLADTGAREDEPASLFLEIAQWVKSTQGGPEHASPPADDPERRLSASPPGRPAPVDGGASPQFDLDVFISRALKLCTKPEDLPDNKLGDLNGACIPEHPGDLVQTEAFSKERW
UniProt P49137, whole entry, looked up: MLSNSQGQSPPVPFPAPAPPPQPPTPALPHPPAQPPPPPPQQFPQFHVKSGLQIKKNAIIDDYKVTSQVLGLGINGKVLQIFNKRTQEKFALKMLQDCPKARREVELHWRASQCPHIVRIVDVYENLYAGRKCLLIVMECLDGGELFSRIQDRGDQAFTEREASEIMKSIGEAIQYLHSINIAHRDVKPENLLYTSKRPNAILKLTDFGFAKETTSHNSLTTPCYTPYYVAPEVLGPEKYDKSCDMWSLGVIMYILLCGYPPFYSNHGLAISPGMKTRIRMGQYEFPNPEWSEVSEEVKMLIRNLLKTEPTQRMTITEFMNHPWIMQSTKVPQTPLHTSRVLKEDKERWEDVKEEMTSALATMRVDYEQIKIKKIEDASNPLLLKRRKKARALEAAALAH
UniProt Q16620, whole entry, looked up: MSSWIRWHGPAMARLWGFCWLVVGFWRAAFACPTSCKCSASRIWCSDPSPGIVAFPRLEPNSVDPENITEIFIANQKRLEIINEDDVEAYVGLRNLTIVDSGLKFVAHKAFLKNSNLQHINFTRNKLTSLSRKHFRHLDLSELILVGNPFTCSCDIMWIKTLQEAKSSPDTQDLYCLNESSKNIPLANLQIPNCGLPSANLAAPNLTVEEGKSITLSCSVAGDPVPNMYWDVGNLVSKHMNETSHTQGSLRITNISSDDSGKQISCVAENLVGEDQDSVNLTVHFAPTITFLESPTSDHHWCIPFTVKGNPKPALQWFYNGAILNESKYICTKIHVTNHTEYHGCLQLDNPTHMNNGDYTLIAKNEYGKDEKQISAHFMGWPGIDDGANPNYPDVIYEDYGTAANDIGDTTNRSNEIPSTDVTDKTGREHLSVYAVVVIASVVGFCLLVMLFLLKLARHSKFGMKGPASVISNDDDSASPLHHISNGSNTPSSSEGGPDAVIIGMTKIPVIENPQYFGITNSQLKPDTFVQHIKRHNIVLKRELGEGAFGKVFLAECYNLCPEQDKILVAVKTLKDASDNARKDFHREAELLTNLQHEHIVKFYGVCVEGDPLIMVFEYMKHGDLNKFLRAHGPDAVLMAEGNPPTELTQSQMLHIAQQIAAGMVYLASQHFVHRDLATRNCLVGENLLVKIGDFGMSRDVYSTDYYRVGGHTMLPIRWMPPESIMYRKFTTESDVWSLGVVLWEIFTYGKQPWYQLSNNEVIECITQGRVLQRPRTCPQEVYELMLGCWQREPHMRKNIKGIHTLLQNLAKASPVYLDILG
UniProt O96013: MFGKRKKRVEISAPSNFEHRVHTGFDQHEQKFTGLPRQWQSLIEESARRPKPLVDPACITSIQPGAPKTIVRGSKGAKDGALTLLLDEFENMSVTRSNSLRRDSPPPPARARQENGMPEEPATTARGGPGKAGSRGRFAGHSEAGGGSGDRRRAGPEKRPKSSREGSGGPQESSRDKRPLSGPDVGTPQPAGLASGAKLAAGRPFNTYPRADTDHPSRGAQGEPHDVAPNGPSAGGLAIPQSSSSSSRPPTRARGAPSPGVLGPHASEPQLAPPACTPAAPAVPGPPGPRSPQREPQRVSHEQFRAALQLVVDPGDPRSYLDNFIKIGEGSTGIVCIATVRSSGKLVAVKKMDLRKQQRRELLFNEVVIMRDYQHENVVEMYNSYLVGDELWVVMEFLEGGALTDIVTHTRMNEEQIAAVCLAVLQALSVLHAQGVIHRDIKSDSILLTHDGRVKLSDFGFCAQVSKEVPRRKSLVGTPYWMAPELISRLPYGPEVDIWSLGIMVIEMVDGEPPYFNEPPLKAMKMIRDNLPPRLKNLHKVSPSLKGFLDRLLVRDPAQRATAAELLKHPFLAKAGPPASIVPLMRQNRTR
UniProt Q15118, whole entry, looked up: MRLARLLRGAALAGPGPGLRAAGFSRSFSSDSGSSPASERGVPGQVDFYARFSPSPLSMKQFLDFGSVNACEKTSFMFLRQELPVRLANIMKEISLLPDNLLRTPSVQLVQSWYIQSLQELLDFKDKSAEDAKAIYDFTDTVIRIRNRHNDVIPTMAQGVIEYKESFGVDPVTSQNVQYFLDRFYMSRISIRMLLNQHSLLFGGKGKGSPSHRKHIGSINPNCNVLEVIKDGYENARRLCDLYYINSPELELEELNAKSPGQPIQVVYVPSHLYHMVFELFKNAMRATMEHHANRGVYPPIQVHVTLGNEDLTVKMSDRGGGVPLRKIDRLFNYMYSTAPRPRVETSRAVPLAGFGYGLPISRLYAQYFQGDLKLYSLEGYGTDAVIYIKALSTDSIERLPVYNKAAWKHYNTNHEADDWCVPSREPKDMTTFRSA

Key:
Test in all cases: kinase-Nluc reporter destabilization hit call (1 = scored as downregulated) (binary); higher = compound decreases kinase abundance
Conditions in all cases: K562; 2-18 h
IRAK3 = IRAK3 (UniProt Q9Y616)
JAK1 = JAK1 (UniProt P23458)
LCK = LCK (UniProt P06239)
LIMK1 = LIMK1 (UniProt P53667)
LIMK2 = LIMK2 (UniProt P53671)
LMTK2 = LMTK2 (UniProt Q8IWU2)
LYN = LYN (UniProt P07948)
MAP2K1 = MAP2K1 (UniProt Q02750)
MAP2K2 = MAP2K2 (UniProt P36507)
MAP4K2 = MAP4K2 (UniProt Q12851)
MAPK1 = MAPK1 (UniProt P28482)
MAPK4 = MAPK4 (UniProt P31152)
MAPKAPK2 = MAPKAPK2 (UniProt P49137)
MKNK1 = MKNK1 (UniProt Q9BUB5)
NTRK2 = NTRK2 (UniProt Q16620)
NTRK3 = NTRK3 (UniProt Q16288)
PAK4 = PAK4 (UniProt O96013)
PBK = PBK (UniProt Q96KB5)
PDGFRB = PDGFRB (UniProt P09619)
PDK1 = PDK1 (UniProt Q15118)

Measured: kinase-Nluc reporter destabilization hit call

COc1cc(-c2cc(-c3cc(OC)c(OC)c(OC)c3)cc(C(F)P(=O)(OCOC(=O)C(C)(C)C)OCOC(=O)C(C)(C)C)c2)cc(OC)c1OC (stereo not given) [Stafia-1-dipivaloyloxymethyl ester] (2.5 µM)
inactive: IRAK3 = 0 | JAK1 = 0 | LCK 0 | LIMK1 = 0 | LIMK2 = 0 | LMTK2 = 0 | LYN 0 | MAP2K1 = 0 | MAP2K2 = 0 | MAP4K2 = 0 | MAPK1 = 0 | MAPK4 = 0 | MAPKAPK2 = 0 | MKNK1 = 0 | NTRK2 = 0 | NTRK3 = 0 | PAK4 = 0 | PBK 0 | PDGFRB 0 | PDK1 = 0

COc1ccc2c(c1)c(C1=C(c3c[nH]c4ccccc34)C(=O)NC1=O)cn2CCCN(C)C (10 µM)
inactive: IRAK3 = 0 | JAK1 = 0 | LCK 0 | LIMK1 = 0 | LIMK2 = 0 | LMTK2 = 0 | LYN 0 | MAP2K1 = 0 | MAP2K2 = 0 | MAP4K2 = 0 | MAPK1 = 0 | MAPK4 = 0 | MAPKAPK2 = 0 | MKNK1 = 0 | NTRK2 = 0 | NTRK3 = 0 | PAK4 = 0 | PBK 0 | PDGFRB 0 | PDK1 = 0

COc1nc(-c2ccnc(NC(=O)C3CC3)c2)sc1C(N)=O [GSK-3β inhibitor 2] (10 µM)
inactive: IRAK3 = 0 | JAK1 = 0 | LCK 0 | LIMK1 = 0 | LIMK2 = 0 | LMTK2 = 0 | LYN 0 | MAP2K1 = 0 | MAP2K2 = 0 | MAP4K2 = 0 | MAPK1 = 0 | MAPK4 = 0 | MAPKAPK2 = 0 | MKNK1 = 0 | NTRK2 = 0 | NTRK3 = 0 | PAK4 = 0 | PBK 0 | PDGFRB 0 | PDK1 = 0

CCCC(=O)Nc1nc2c(ncn2[C@@H]2O[C@@H]3COP(=O)(O)O[C@H]3[C@H]2OC(=O)CCC)c(=O)[nH]1 [Dibutyryl-cGMP (sodium)] (10 µM)
inactive: IRAK3 = 0 | JAK1 = 0 | LCK 0 | LIMK1 = 0 | LIMK2 = 0 | LMTK2 = 0 | LYN 0 | MAP2K1 = 0 | MAP2K2 = 0 | MAP4K2 = 0 | MAPK1 = 0 | MAPK4 = 0 | MAPKAPK2 = 0 | MKNK1 = 0 | NTRK2 = 0 | NTRK3 = 0 | PAK4 = 0 | PBK 0 | PDGFRB 0 | PDK1 = 0

CN(C)c1nc2c(Br)c(Br)c(Br)c(Br)c2n1CC(=O)O (10 µM)
inactive: IRAK3 = 0 | JAK1 = 0 | LCK 0 | LIMK1 = 0 | LIMK2 = 0 | LMTK2 = 0 | LYN 0 | MAP2K1 = 0 | MAP2K2 = 0 | MAP4K2 = 0 | MAPK1 = 0 | MAPK4 = 0 | MAPKAPK2 = 0 | MKNK1 = 0 | NTRK2 = 0 | NTRK3 = 0 | PAK4 = 0 | PBK 0 | PDGFRB 0 | PDK1 = 0

Compounds above containing an NH in an aromatic ring:
COc1ccc2c(c1)c(C1=C(c3c[nH]c4ccccc34)C(=O)NC1=O)cn2CCCN(C)C (10 µM)
inactive: IRAK3 = 0 | JAK1 = 0 | LCK 0 | LIMK1 = 0 | LIMK2 = 0 | LMTK2 = 0 | LYN 0 | MAP2K1 = 0 | MAP2K2 = 0 | MAP4K2 = 0 | MAPK1 = 0 | MAPK4 = 0 | MAPKAPK2 = 0 | MKNK1 = 0 | NTRK2 = 0 | NTRK3 = 0 | PAK4 = 0 | PBK 0 | PDGFRB 0 | PDK1 = 0

CCCC(=O)Nc1nc2c(ncn2[C@@H]2O[C@@H]3COP(=O)(O)O[C@H]3[C@H]2OC(=O)CCC)c(=O)[nH]1 [Dibutyryl-cGMP (sodium)] (10 µM)
inactive: IRAK3 = 0 | JAK1 = 0 | LCK 0 | LIMK1 = 0 | LIMK2 = 0 | LMTK2 = 0 | LYN 0 | MAP2K1 = 0 | MAP2K2 = 0 | MAP4K2 = 0 | MAPK1 = 0 | MAPK4 = 0 | MAPKAPK2 = 0 | MKNK1 = 0 | NTRK2 = 0 | NTRK3 = 0 | PAK4 = 0 | PBK 0 | PDGFRB 0 | PDK1 = 0

Later entries:

O[C@H]1CC[C@H](Nc2ncc3nc(Nc4c(F)cc(F)cc4F)n([C@H]4CCOC4)c3n2)CC1 [Tanzisertib] (10 µM)
inactive: IRAK3 = 0 | JAK1 = 0 | LCK 0 | LIMK1 = 0 | LIMK2 = 0 | LMTK2 = 0 | LYN 0 | MAP2K1 = 0 | MAP2K2 = 0 | MAP4K2 = 0 | MAPK1 = 0 | MAPK4 = 0 | MAPKAPK2 = 0 | MKNK1 = 0 | NTRK2 = 0 | NTRK3 = 0 | PAK4 = 0 | PBK 0 | PDGFRB 0 | PDK1 = 0

Nc1cccc(S(=O)(=O)N2CCCN(S(=O)(=O)c3ccc4c(c3)OCCO4)CC2)c1 (10 µM)
inactive: IRAK3 = 0 | JAK1 = 0 | LCK 0 | LIMK1 = 0 | LIMK2 = 0 | LMTK2 = 0 | LYN 0 | MAP2K1 = 0 | MAP2K2 = 0 | MAP4K2 = 0 | MAPK1 = 0 | MAPK4 = 0 | MAPKAPK2 = 0 | MKNK1 = 0 | NTRK2 = 0 | NTRK3 = 0 | PAK4 = 0 | PBK 0 | PDGFRB 0 | PDK1 = 0

COC(=O)N[C@@H](C)CNc1nccc(-c2cn(C(C)C)nc2-c2cc(Cl)cc(NS(C)(=O)=O)c2F)n1 [Encorafenib] (10 µM)
inactive: IRAK3 = 0 | JAK1 = 0 | LCK 0 | LIMK1 = 0 | LIMK2 = 0 | LMTK2 = 0 | LYN 0 | MAP2K1 = 0 | MAP2K2 = 0 | MAP4K2 = 0 | MAPK1 = 0 | MAPK4 = 0 | MAPKAPK2 = 0 | MKNK1 = 0 | NTRK2 = 0 | NTRK3 = 0 | PAK4 = 0 | PBK 0 | PDGFRB 0 | PDK1 = 0

CN1CCN(CCCNc2ncc(Cl)c(-c3cc4c(C(=O)NC5CC5)cccc4s3)n2)CC1 (10 µM)
inactive: IRAK3 = 0 | JAK1 = 0 | LCK 0 | LIMK1 = 0 | LIMK2 = 0 | LMTK2 = 0 | LYN 0 | MAP2K1 = 0 | MAP2K2 = 0 | MAP4K2 = 0 | MAPK1 = 0 | MAPK4 = 0 | MAPKAPK2 = 0 | MKNK1 = 0 | NTRK2 = 0 | NTRK3 = 0 | PAK4 = 0 | PBK 0 | PDGFRB 0 | PDK1 = 0

Cc1ccc(-c2ccc3c(ccc4sc5c(c43)NC[C@@H](C)NC5=O)n2)cn1 (10 µM)
inactive: IRAK3 = 0 | JAK1 = 0 | LCK 0 | LIMK1 = 0 | LIMK2 = 0 | LMTK2 = 0 | LYN 0 | MAP2K1 = 0 | MAP2K2 = 0 | MAP4K2 = 0 | MAPK1 = 0 | MAPK4 = 0 | MAPKAPK2 = 0 | MKNK1 = 0 | NTRK2 = 0 | NTRK3 = 0 | PAK4 = 0 | PBK 0 | PDGFRB 0 | PDK1 = 0

CC[C@@H]1C(=O)N(C)c2cnc(Nc3ccc(C(=O)N[C@H]4CC[C@H](N5CCN(CC6CC6)CC5)CC4)cc3OC)nc2N1C(C)C [Volasertib] (2.5 µM)
inactive: IRAK3 = 0 | JAK1 = 0 | LCK 0 | LIMK1 = 0 | LIMK2 = 0 | LMTK2 = 0 | LYN 0 | MAP2K1 = 0 | MAP2K2 = 0 | MAP4K2 = 0 | MAPK1 = 0 | MAPK4 = 0 | MAPKAPK2 = 0 | MKNK1 = 0 | NTRK2 = 0 | NTRK3 = 0 | PAK4 = 0 | PBK 0 | PDGFRB 0 | PDK1 = 0

OCCN(CCO)c1ccc(C(c2ccc(Cl)cc2)c2ccc(N(CCO)CCO)cc2)cc1 (10 µM)
inactive: IRAK3 = 0 | JAK1 = 0 | LCK 0 | LIMK1 = 0 | LIMK2 = 0 | LMTK2 = 0 | LYN 0 | MAP2K1 = 0 | MAP2K2 = 0 | MAP4K2 = 0 | MAPK1 = 0 | MAPK4 = 0 | MAPKAPK2 = 0 | MKNK1 = 0 | NTRK2 = 0 | NTRK3 = 0 | PAK4 = 0 | PBK 0 | PDGFRB 0 | PDK1 = 0

CN(CC(=O)N(Cc1ccc(C2CCCCC2)cc1)c1ccc(C(=O)O)c(O)c1)S(=O)(=O)c1c(F)c(F)c(F)c(F)c1F (2.5 µM)
inactive: IRAK3 = 0 | JAK1 = 0 | LCK 0 | LIMK1 = 0 | LIMK2 = 0 | LMTK2 = 0 | LYN 0 | MAP2K1 = 0 | MAP2K2 = 0 | MAP4K2 = 0 | MAPK1 = 0 | MAPK4 = 0 | MAPKAPK2 = 0 | MKNK1 = 0 | NTRK2 = 0 | NTRK3 = 0 | PAK4 = 0 | PBK 0 | PDGFRB 0 | PDK1 = 0

O=C(Nc1ccc(Cl)cc1)C1CCCN(C(=O)c2cccc(-c3ccco3)c2)C1 (stereo not given) (2.5 µM)
inactive: IRAK3 = 0 | JAK1 = 0 | LCK 0 | LIMK1 = 0 | LIMK2 = 0 | LMTK2 = 0 | LYN 0 | MAP2K1 = 0 | MAP2K2 = 0 | MAP4K2 = 0 | MAPK1 = 0 | MAPK4 = 0 | MAPKAPK2 = 0 | MKNK1 = 0 | NTRK2 = 0 | NTRK3 = 0 | PAK4 = 0 | PBK 0 | PDGFRB 0 | PDK1 = 0

C=C[C@H]1[C@H](O[C@@H]2O[C@H](CO)[C@@H](O)[C@H](O)[C@H]2OC(=O)c2c(O)cc(O)cc2-c2cccc(O)c2)OC=C2C(=O)OCC[C@H]21 [Amarogentin] (10 µM)
inactive: IRAK3 = 0 | JAK1 = 0 | LCK 0 | LIMK1 = 0 | LIMK2 = 0 | LMTK2 = 0 | LYN 0 | MAP2K1 = 0 | MAP2K2 = 0 | MAP4K2 = 0 | MAPK1 = 0 | MAPK4 = 0 | MAPKAPK2 = 0 | MKNK1 = 0 | NTRK2 = 0 | NTRK3 = 0 | PAK4 = 0 | PBK 0 | PDGFRB 0 | PDK1 = 0

Cc1cccc(-c2[nH]ncc2-c2ccc3ncccc3n2)n1 (10 µM)
inactive: IRAK3 = 0 | JAK1 = 0 | LCK 0 | LIMK1 = 0 | LIMK2 = 0 | LMTK2 = 0 | LYN 0 | MAP2K1 = 0 | MAP2K2 = 0 | MAP4K2 = 0 | MAPK1 = 0 | MAPK4 = 0 | MAPKAPK2 = 0 | MKNK1 = 0 | NTRK2 = 0 | NTRK3 = 0 | PAK4 = 0 | PBK 0 | PDGFRB 0 | PDK1 = 0

COc1ccc2c(=O)c(-c3ccccc3)coc2c1 [7-Methoxyisoflavone] (10 µM)
inactive: IRAK3 = 0 | JAK1 = 0 | LCK 0 | LIMK1 = 0 | LIMK2 = 0 | LMTK2 = 0 | LYN 0 | MAP2K1 = 0 | MAP2K2 = 0 | MAP4K2 = 0 | MAPK1 = 0 | MAPK4 = 0 | MAPKAPK2 = 0 | MKNK1 = 0 | NTRK2 = 0 | NTRK3 = 0 | PAK4 = 0 | PBK 0 | PDGFRB 0 | PDK1 = 0

O=C1NCCCc2c1oc1ccc(O)cc21 (10 µM)
inactive: IRAK3 = 0 | JAK1 = 0 | LCK 0 | LIMK1 = 0 | LIMK2 = 0 | LMTK2 = 0 | LYN 0 | MAP2K1 = 0 | MAP2K2 = 0 | MAP4K2 = 0 | MAPK1 = 0 | MAPK4 = 0 | MAPKAPK2 = 0 | MKNK1 = 0 | NTRK2 = 0 | NTRK3 = 0 | PAK4 = 0 | PBK 0 | PDGFRB 0 | PDK1 = 0
